Results published in the supplement of paper PMC10849652.
The list shows a part of the results.

The chains behind the UniProt entries cited, without tags or fusion partners. Where a name states a change or a piece, a line headed by the entry shows the natural chain unless it says otherwise.
UniProt Q9UGP4: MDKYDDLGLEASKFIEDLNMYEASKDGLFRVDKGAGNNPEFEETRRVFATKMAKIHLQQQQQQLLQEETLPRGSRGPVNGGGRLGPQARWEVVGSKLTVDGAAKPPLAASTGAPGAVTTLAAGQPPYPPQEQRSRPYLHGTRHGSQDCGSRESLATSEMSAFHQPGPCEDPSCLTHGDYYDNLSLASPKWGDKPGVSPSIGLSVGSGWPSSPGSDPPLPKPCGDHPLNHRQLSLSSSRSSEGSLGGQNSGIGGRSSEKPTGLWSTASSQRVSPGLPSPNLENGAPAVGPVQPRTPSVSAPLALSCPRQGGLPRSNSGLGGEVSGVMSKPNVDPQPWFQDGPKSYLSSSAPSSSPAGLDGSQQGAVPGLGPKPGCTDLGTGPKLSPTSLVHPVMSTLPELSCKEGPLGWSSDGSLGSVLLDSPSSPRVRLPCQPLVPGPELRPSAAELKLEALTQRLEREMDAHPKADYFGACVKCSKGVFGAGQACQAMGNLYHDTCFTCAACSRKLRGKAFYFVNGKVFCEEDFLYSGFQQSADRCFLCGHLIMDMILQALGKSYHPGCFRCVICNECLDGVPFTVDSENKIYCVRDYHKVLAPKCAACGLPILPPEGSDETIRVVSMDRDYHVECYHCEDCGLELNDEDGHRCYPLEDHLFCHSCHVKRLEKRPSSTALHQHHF
UniProt Q8NG48: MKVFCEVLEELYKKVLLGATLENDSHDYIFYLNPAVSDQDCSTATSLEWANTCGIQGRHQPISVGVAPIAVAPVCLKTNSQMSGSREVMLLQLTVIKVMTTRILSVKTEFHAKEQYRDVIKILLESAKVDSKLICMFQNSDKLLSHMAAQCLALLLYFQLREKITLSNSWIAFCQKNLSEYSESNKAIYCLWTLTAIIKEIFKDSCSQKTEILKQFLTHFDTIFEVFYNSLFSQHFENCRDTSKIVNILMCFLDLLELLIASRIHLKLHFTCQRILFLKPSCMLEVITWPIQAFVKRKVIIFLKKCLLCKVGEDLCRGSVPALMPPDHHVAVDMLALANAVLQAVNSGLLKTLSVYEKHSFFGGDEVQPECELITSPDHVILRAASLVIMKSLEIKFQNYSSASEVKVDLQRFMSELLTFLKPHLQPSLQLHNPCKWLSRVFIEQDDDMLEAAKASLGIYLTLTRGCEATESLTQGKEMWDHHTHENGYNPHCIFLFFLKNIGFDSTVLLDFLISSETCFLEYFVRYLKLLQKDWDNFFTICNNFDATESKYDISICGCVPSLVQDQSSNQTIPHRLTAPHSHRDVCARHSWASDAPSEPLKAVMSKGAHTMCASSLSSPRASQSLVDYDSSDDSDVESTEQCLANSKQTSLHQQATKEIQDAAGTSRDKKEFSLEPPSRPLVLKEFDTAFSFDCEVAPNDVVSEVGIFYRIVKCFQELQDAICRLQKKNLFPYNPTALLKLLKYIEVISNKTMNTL
UniProt Q86WA8: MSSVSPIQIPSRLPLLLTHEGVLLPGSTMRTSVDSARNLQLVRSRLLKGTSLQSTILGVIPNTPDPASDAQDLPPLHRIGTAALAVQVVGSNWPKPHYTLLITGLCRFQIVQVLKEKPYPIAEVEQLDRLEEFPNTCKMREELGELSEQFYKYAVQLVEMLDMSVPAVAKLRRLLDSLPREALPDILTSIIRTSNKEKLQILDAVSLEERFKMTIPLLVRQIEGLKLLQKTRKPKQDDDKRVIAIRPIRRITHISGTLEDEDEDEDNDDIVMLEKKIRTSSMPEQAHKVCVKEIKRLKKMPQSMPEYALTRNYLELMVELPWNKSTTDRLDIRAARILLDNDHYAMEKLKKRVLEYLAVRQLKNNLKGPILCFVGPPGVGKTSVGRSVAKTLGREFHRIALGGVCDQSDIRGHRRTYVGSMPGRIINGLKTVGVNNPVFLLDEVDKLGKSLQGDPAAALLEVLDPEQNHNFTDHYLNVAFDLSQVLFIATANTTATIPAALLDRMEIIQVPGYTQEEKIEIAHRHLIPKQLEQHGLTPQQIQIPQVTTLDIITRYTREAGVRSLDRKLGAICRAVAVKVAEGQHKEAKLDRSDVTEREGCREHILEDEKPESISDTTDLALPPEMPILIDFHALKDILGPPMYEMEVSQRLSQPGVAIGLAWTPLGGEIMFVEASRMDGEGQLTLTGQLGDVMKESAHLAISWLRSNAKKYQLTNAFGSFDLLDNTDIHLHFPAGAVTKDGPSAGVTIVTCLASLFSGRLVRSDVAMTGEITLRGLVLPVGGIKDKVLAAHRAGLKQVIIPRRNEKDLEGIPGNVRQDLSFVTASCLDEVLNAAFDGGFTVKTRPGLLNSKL
UniProt Q8WVP7: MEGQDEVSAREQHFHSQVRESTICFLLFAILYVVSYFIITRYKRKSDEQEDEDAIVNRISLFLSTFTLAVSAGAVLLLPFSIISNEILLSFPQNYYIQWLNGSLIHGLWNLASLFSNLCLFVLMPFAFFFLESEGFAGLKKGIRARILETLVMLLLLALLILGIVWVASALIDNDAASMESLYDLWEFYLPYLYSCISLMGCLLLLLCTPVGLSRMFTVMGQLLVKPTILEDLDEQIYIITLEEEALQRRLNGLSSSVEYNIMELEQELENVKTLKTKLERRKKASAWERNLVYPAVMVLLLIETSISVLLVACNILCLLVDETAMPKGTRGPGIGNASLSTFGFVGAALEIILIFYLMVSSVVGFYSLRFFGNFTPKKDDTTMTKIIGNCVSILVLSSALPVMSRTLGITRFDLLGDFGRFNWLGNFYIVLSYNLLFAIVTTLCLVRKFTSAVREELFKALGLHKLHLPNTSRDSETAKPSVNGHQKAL
UniProt Q13094: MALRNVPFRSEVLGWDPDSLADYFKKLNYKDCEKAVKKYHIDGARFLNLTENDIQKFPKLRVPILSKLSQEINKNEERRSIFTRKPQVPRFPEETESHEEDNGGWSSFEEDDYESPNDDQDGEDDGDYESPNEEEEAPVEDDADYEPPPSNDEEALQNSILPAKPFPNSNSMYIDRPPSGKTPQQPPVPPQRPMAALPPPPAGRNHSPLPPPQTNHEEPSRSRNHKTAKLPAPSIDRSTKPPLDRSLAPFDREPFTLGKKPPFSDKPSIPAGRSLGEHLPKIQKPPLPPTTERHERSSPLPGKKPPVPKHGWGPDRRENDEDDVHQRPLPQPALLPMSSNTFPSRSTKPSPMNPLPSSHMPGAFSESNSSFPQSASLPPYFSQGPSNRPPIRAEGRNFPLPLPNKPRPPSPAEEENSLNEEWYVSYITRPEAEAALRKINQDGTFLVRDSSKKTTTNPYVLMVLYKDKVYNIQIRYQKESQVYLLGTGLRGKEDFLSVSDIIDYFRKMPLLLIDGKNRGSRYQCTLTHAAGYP
UniProt Q9H6V9: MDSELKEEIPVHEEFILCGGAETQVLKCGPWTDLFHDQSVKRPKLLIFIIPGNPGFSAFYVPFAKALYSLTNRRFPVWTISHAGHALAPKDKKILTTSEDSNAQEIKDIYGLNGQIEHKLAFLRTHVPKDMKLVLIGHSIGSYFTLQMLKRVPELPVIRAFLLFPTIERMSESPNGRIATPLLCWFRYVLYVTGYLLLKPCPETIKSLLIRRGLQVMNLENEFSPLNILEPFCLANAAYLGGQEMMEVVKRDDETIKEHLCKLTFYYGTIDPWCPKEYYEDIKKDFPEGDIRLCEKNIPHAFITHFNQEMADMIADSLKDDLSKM
UniProt Q9GZZ8: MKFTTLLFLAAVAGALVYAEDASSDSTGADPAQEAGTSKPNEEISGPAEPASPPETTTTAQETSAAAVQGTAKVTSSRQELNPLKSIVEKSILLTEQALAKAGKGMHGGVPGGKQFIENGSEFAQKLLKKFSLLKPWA
UniProt Q92615, whole entry, looked up: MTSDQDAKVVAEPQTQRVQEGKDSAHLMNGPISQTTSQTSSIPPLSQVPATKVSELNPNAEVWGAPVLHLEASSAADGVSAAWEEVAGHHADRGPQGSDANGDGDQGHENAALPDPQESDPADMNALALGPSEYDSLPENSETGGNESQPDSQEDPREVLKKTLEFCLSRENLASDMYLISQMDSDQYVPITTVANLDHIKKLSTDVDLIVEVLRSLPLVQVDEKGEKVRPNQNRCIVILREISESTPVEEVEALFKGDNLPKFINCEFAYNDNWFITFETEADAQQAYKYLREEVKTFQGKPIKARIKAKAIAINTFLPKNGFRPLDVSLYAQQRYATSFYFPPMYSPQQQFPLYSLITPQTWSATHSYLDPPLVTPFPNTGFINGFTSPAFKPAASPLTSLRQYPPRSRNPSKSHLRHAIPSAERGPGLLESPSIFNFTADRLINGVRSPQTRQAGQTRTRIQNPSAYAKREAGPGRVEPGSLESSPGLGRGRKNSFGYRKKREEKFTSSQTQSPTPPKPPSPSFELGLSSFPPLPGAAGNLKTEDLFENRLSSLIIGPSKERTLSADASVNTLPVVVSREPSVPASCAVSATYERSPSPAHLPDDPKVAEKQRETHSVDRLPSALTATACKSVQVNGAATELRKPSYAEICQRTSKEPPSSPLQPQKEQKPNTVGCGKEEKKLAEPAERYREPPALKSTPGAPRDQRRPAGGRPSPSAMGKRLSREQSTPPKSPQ
UniProt Q6P1Q0: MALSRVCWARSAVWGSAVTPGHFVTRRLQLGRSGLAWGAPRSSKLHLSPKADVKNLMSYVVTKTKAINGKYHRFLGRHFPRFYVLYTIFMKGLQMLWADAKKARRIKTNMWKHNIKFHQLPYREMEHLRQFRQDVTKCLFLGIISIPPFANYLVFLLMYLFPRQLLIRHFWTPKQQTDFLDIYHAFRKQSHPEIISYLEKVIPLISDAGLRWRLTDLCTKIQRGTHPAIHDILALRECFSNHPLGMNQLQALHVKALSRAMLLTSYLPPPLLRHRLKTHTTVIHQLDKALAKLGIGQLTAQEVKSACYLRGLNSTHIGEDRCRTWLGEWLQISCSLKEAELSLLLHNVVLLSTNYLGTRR
UniProt Q6P5S2: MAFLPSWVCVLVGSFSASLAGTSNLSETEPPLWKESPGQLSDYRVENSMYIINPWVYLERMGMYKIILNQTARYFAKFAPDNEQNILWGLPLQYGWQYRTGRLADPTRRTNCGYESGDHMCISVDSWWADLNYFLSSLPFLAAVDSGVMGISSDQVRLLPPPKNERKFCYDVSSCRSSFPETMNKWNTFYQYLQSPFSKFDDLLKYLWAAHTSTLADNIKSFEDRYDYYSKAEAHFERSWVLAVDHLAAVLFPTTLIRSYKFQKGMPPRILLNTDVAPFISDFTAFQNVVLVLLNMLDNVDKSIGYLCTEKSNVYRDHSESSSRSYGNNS
UniProt Q96GY3: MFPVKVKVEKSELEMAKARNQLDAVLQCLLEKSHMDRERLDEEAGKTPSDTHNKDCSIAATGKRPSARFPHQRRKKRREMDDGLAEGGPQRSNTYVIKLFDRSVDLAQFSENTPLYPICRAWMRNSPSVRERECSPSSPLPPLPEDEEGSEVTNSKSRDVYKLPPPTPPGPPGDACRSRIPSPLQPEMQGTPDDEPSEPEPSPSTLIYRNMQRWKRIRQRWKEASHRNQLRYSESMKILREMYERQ
UniProt Q92604: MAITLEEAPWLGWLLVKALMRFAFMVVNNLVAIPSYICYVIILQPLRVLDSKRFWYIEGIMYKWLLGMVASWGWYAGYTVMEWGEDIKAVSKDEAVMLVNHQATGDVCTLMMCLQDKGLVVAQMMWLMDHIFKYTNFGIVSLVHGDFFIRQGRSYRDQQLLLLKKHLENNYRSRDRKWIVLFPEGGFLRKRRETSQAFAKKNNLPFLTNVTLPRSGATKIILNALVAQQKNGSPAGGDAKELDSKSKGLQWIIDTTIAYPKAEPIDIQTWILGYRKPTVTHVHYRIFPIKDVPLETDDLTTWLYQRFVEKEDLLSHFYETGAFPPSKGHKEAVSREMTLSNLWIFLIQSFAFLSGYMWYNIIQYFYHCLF
UniProt Q8NC56: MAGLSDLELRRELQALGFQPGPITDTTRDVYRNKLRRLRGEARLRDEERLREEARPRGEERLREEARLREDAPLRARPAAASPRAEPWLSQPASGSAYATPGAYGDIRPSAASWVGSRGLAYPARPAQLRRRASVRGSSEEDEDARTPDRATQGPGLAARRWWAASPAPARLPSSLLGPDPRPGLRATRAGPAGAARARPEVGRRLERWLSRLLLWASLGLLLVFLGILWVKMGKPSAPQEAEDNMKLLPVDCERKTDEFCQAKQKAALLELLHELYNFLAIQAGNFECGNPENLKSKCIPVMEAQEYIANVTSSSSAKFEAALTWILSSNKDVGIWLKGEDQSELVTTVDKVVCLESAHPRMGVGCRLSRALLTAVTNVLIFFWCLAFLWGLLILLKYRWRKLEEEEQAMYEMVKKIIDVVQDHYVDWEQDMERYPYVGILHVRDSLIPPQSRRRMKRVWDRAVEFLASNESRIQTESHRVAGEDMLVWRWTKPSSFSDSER
UniProt A6NK58: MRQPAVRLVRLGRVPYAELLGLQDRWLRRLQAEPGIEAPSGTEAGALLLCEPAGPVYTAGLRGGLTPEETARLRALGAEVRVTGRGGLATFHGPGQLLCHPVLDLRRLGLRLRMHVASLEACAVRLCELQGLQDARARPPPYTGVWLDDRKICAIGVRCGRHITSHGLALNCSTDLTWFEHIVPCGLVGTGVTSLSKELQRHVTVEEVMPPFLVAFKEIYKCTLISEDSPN

Legend:
Test in all cases: log2 fold change, soluble protein after heating vs DMSO (PISA); higher = thermal stabilisation; K562 cells, 10 uM, 30 min; active = over 0.2 and 3.5 SD of the protein, either way, in both replicates (recomputed)
[1] = compound: CS(=O)(=O)c1ccc(-c2cnc(N)c(C(=O)Nc3ccccc3)n2)cc1
How it was run: (§1)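 Soluble protein was defined as the supernatant after 21,000xg for 90 min. It came from K562 cells at 2×10^6 cells/mL given 10 μM compound for 30 min, heated in aliquots for 3 min across 48°C-58°C, pooled, and extracted in PBS with 0.5% NP-40 at 4°C, and was quantified by TMTpro 16plex LC-MS/MS with equalised channel sums. Thermal stability against control samples, from duplicates, is reported as log2 fold change.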

[2] = compound: C[C@@H](Oc1cc(-c2cnn(C3CCNCC3)c2)cnc1N)c1c(Cl)ccc(F)c1Cl [crizotinib]
How it was run: as §1

[3] = compound: C[C@@H]1COCCN1C2=NC(=NC(=C2)C3(CC3)S(=O)(=O)C)C4=C5C=CNC5=CC=C4
How it was run: as §1

[4] = compound: Cc1ccc(-n2nc(C(C)(C)C)cc2NC(=O)Nc2ccc(OCCN3CCOCC3)c3ccccc23)cc1 [doramapimod]
How it was run: as §1

[5] = compound: C[C@H](C1=CC=C(C=C1)C(=O)NC2=C3C=CNC3=NC=C2)N
How it was run: as §1

[6] = compound: Cc1cc(Nc2cc(CN3CCOCC3)c3nc(C)c(Cc4ccc(Cl)cc4F)n3n2)n[nH]1 [gandotinib]
How it was run: as §1

[7] = compound: Cc1cc(SCc2sc(-c3ccc(C(F)(F)F)cc3)nc2C)ccc1OCC(=O)O
How it was run: as §1

[8] = compound: Cc1ccc(C(=O)N(CCCN)[C@@H](c2nc3cc(Cl)ccc3c(=O)n2Cc2ccccc2)C(C)C)cc1 [ispinesib]
How it was run: as §1

[9] = compound: Cc1cc(Nc2cc(N3CCN(C)CC3)nc(Sc3ccc(NC(=O)C4CC4)cc3)n2)n[nH]1 [tozasertib]
How it was run: as §1

[10] = compound: C[C@H](Nc1ncnc2nc[nH]c12)c1cc2cccc(Cl)c2c(=O)n1-c1ccccc1 [duvelisib]
How it was run: as §1

Row | Target | log2 fold change [1] | log2 fold change [2] | log2 fold change [3] | log2 fold change [4] | log2 fold change [5] | log2 fold change [6] | log2 fold change [7] | log2 fold change [8] | log2 fold change [9] | log2 fold change [10]
1 | LPP (UniProt Q93052) | inactive: 0.148 | inactive: 0.175 | inactive: 0.143 | inactive: -0.206 |  |  |  |  |  | 
2 | LIMD1 (UniProt Q9UGP4) | inactive: -0.03 | inactive: 0.005 | inactive: -0.007 | inactive: -0.01 | inactive: -0.071 | inactive: 0.011 | inactive: 0.042 | inactive: 0.008 |  | 
3 | LINS1 (UniProt Q8NG48) | inactive: -0.01 | inactive: -0.011 | inactive: 0.169 | inactive: -0.014 |  |  |  | inactive: 0 |  | 
4 | LIMK1 (UniProt P53667) | inactive: -0.016 | inactive: -0.039 | inactive: 0.277 | inactive: 0.061 |  |  |  |  | inactive: 0.061 | 
5 | LONP2 (UniProt Q86WA8) | inactive: -0.004 | inactive: 0.072 | inactive: 0.026 | inactive: 0.073 | inactive: 0.113 | inactive: 0.017 | inactive: -0.094 | inactive: 0.092 |  | 
6 | LRFN1 (UniProt Q9P244) | inactive: 0.108 | inactive: -0.006 | inactive: -0.15 | inactive: -0.09 | inactive: -0.198 |  | inactive: 0.009 | inactive: 0.102 |  | 
7 | LMBR1 isoform 3 (UniProt Q8WVP7) | inactive: 0.086 | inactive: -0.198 | inactive: 0.019 | inactive: 0.032 | inactive: -0.05 | active: -0.812 | inactive: 0.04 | inactive: -0.477 |  | 
8 | LRBA, A0A494BZW2 | inactive: 0.013 | inactive: -0.053 | inactive: 0.114 | inactive: 0.036 | inactive: 0.104 | inactive: 0.041 | inactive: -0.004 | inactive: -0.182 |  | 
9 | LCP2 (UniProt Q13094) | inactive: 0.006 | inactive: -0.041 | inactive: -0.007 | inactive: -0.022 |  | inactive: -0.203 | inactive: -0.017 | inactive: -0.104 | inactive: -0.052 | inactive: 0.011
10 | LBR (UniProt Q14739) | inactive: 0.025 | inactive: 0.152 | inactive: 0.016 | inactive: -0.02 | inactive: -0.031 | active: -0.359 | inactive: 0.017 | inactive: -0.08 |  | 
11 | LNPEP (UniProt Q9UIQ6) | inactive: 0.028 | inactive: 0.015 | inactive: 0.023 | inactive: -0.013 | inactive: -0.053 | inactive: 0.028 | inactive: -0.008 | inactive: -0.039 |  | 
12 | LDAH isoform 2 (UniProt Q9H6V9) | inactive: 0.052 | active: -0.308 | inactive: 0.064 | inactive: 0.019 | inactive: -0.035 | inactive: -0.001 | inactive: 0.204 | active: -0.438 |  | 
13 | L2HGDH (UniProt Q9H9P8) | inactive: 0.04 | inactive: -0.081 | inactive: 0.124 | inactive: -0.02 | inactive: -0.025 | inactive: 0.024 | inactive: 0.039 | inactive: -0.083 |  | 
14 | LACRT (UniProt Q9GZZ8) | inactive: -0.095 |  | inactive: 0.074 |  | inactive: -0.231 |  |  | inactive: 1.15 |  | 
15 | LARP4B (UniProt Q92615) | inactive: -0.066 | inactive: -0.1 | inactive: -0.121 | inactive: 0.048 | inactive: 0.104 | inactive: -0.029 | inactive: 0.065 | inactive: -0.132 |  | 
16 | LETMD1 isoform 7 (UniProt Q6P1Q0) | inactive: -0.093 | inactive: 0.04 | inactive: 0.061 | inactive: 0.083 |  | inactive: 0.041 | inactive: 0.033 | inactive: 0.078 | inactive: -0.051 | inactive: 0.073

Row | Target | log2 fold change [1] | log2 fold change [2] | log2 fold change [3] | log2 fold change [4] | log2 fold change [5] | log2 fold change [6] | log2 fold change [7] | log2 fold change [8] | log2 fold change [9] | log2 fold change [10]
17 | LEG1 (UniProt Q6P5S2) | inactive: -0.028 |  |  |  | inactive: 0.257 | inactive: -0.151 | inactive: -0.023 |  |  | inactive: 0.079
18 | LRBA (UniProt P50851) | inactive: 0.018 | inactive: -0.054 | inactive: 0.037 | inactive: 0.012 | inactive: -0.005 | inactive: -0.094 | inactive: 0.011 | inactive: -0.078 |  | 
19 | LIN37 (UniProt Q96GY3) | inactive: 0.204 | inactive: -0.105 |  | inactive: -0.042 |  | inactive: 0.121 |  |  |  | 
20 | LPIN3 isoform 2 (UniProt Q9BQK8) | inactive: 0.016 |  | inactive: 0.125 |  | inactive: 0.011 | inactive: -0.059 | inactive: 0.015 | inactive: -0.037 |  | 
21 | LPGAT1 (UniProt Q92604) | inactive: -0.01 | inactive: -0.101 | inactive: 0.073 | inactive: -0.038 | inactive: 0.015 |  | inactive: 0.16 | inactive: -0.237 |  | 
22 | LPIN1 isoform 7 (UniProt Q14693) | inactive: 0 | inactive: -0.184 | inactive: -0.034 | inactive: 0.067 | inactive: 0.031 | inactive: -0.079 | inactive: -0.043 | inactive: -0.037 |  | 
23 | LEMD2 (UniProt Q8NC56) | inactive: -0.001 | active: -0.286 | inactive: 0.084 | inactive: 0.079 | inactive: -0.057 | inactive: -0.17 | inactive: 0.109 | active: -0.438 |  | 
24 | LMBRD2 (UniProt Q68DH5) | inactive: 0.034 | inactive: -0.156 | inactive: -0.042 | inactive: 0.011 | inactive: -0.152 | inactive: -0.049 | inactive: -0.065 | active: -0.328 |  | 
25 | LARP4 isoform 4 (UniProt Q71RC2) | inactive: -0.027 | inactive: -0.098 | active: -0.308 | inactive: 0.104 | inactive: 0.177 | inactive: 0 | inactive: 0.06 | inactive: -0.237 |  | 
26 | LIPT2 (UniProt A6NK58) | inactive: -0.015 |  | inactive: -0.142 |  |  |  | inactive: 0.041 |  | inactive: -0.017 | inactive: -0.051
27 | LIN9 isoform 2 (UniProt Q5TKA1) | inactive: 0.031 | inactive: 0.061 | inactive: 0.088 | inactive: 0.105 | inactive: 0.115 |  |  | inactive: -0.169 | inactive: -0.31 | 
28 | LPCAT3 (UniProt Q6P1A2) | inactive: 0.091 | inactive: -0.121 | inactive: 0.171 | inactive: -0.042 | inactive: 0.006 | inactive: -0.167 | inactive: 0.027 | active: -0.696 |  | 
29 | LARGE2 (UniProt Q8N3Y3) | inactive: 0.018 | inactive: 0.077 |  | inactive: 0.055 |  |  |  |  |  | 
30 | LDHC (UniProt P07864) | inactive: 0.074 |  | inactive: -0.059 |  |  |  |  |  |  | 
31 | LEMD3 (UniProt Q9Y2U8) | inactive: 0.072 | inactive: -0.12 | inactive: -0.084 | inactive: -0.002 | inactive: -0.016 | inactive: 0.006 | inactive: 0.114 | inactive: -0.095 |  | 
32 | LHFPL2 (UniProt Q6ZUX7) |  |  | inactive: 0.063 |  |  |  |  |  | inactive: -0.027 | 

Reprinted, nos. 20–24
Row | Target | log2 fold change [1] | log2 fold change [2] | log2 fold change [3] | log2 fold change [4] | log2 fold change [5] | log2 fold change [6] | log2 fold change [7] | log2 fold change [8] | log2 fold change [9] | log2 fold change [10]
20 | LPIN3 isoform 2 (UniProt Q9BQK8) | inactive: 0.016 |  | inactive: 0.125 |  | inactive: 0.011 | inactive: -0.059 | inactive: 0.015 | inactive: -0.037 |  | 
21 | LPGAT1 (UniProt Q92604) | inactive: -0.01 | inactive: -0.101 | inactive: 0.073 | inactive: -0.038 | inactive: 0.015 |  | inactive: 0.16 | inactive: -0.237 |  | 
22 | LPIN1 isoform 7 (UniProt Q14693) | inactive: 0 | inactive: -0.184 | inactive: -0.034 | inactive: 0.067 | inactive: 0.031 | inactive: -0.079 | inactive: -0.043 | inactive: -0.037 |  | 
23 | LEMD2 (UniProt Q8NC56) | inactive: -0.001 | active: -0.286 | inactive: 0.084 | inactive: 0.079 | inactive: -0.057 | inactive: -0.17 | inactive: 0.109 | active: -0.438 |  | 
24 | LMBRD2 (UniProt Q68DH5) | inactive: 0.034 | inactive: -0.156 | inactive: -0.042 | inactive: 0.011 | inactive: -0.152 | inactive: -0.049 | inactive: -0.065 | active: -0.328 |  | 
